PMC10193302
Results are given in words; binding and its absence hold for the method and conditions named. Binding seen in cells or lysates may run through a third protein. Here binding means that the protein was enriched with, or labelled near, the bait; the list need not be complete. Sequences can lack the tags named with a protein.

Chains of the proteins cited; added tags and fusions are not shown.
UniProt P80317: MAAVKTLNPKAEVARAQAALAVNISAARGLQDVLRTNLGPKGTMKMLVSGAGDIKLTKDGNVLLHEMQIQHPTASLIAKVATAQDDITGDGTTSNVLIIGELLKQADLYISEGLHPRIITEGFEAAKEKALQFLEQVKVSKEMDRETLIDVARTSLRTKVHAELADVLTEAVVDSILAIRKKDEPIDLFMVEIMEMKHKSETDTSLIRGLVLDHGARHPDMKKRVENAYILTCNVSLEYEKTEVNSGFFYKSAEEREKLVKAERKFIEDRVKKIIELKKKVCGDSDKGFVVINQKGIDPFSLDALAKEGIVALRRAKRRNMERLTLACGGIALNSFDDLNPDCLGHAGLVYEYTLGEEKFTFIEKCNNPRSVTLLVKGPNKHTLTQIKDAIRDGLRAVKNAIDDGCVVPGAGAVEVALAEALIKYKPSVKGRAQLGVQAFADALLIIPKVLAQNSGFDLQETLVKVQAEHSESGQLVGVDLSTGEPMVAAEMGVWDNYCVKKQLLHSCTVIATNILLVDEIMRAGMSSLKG
UniProt E9Q4F7: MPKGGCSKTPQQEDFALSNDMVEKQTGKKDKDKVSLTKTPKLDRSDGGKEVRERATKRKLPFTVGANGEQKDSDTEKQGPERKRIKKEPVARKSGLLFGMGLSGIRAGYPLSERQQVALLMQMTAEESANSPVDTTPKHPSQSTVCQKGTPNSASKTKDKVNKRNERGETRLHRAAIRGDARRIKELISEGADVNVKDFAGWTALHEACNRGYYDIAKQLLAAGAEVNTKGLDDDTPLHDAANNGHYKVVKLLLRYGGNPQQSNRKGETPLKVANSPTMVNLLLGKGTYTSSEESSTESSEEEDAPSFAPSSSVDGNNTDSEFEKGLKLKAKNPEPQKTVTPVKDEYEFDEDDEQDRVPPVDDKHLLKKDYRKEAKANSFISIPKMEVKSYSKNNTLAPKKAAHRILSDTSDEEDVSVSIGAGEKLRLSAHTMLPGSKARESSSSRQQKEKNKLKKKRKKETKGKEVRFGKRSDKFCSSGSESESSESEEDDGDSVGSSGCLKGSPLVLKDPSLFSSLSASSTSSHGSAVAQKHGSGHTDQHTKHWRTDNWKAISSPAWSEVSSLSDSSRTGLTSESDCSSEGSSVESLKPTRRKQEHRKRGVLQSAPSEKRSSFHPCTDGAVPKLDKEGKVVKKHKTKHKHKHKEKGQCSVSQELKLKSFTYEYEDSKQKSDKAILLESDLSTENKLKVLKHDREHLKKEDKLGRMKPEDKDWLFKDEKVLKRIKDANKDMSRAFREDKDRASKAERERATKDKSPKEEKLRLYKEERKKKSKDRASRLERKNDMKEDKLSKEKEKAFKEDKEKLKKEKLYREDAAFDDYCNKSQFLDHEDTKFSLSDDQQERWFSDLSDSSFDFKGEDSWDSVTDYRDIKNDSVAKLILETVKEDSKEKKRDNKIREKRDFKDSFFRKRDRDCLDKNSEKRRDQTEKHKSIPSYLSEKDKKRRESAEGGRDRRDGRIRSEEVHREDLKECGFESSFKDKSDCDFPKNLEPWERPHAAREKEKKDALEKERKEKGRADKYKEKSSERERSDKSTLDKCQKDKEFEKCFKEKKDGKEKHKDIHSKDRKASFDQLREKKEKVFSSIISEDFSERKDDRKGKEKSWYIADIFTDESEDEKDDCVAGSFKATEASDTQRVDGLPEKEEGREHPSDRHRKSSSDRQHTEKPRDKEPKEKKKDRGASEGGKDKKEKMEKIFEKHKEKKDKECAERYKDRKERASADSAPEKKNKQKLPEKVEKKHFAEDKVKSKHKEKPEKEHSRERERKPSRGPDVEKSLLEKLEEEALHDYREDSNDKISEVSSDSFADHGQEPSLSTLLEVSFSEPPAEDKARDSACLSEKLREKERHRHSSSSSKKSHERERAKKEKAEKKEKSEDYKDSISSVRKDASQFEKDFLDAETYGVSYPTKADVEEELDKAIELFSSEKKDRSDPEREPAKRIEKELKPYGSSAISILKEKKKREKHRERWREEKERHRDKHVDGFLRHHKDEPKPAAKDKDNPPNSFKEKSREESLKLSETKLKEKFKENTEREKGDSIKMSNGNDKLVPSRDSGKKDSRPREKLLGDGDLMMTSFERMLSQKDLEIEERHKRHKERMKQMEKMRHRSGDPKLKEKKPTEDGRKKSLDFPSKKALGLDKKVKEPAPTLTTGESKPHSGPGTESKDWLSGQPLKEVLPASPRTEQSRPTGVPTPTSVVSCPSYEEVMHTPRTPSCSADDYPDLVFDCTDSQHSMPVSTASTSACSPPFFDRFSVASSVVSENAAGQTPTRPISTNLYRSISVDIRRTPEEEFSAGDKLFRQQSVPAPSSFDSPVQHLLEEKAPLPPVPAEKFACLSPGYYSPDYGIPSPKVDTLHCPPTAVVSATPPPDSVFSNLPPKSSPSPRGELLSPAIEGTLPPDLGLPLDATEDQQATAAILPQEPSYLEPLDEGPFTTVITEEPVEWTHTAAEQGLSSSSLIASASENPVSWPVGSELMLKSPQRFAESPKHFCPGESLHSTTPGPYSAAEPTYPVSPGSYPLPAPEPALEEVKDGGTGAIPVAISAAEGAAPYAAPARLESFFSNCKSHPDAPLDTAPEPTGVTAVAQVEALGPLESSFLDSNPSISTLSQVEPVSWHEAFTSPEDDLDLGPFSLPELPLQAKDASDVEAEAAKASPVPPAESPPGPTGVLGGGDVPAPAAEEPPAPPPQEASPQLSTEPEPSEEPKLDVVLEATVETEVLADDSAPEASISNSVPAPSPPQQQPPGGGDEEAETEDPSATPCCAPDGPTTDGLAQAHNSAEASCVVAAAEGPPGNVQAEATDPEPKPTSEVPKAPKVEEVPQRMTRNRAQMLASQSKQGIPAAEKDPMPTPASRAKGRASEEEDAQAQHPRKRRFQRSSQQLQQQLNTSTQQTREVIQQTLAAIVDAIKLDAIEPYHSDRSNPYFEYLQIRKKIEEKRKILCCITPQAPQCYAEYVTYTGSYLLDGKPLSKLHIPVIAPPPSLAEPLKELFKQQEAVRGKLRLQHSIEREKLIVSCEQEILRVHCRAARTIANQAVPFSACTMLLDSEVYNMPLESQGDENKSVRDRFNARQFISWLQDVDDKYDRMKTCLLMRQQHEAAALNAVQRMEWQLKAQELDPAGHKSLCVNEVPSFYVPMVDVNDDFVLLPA
UniProt Q61390: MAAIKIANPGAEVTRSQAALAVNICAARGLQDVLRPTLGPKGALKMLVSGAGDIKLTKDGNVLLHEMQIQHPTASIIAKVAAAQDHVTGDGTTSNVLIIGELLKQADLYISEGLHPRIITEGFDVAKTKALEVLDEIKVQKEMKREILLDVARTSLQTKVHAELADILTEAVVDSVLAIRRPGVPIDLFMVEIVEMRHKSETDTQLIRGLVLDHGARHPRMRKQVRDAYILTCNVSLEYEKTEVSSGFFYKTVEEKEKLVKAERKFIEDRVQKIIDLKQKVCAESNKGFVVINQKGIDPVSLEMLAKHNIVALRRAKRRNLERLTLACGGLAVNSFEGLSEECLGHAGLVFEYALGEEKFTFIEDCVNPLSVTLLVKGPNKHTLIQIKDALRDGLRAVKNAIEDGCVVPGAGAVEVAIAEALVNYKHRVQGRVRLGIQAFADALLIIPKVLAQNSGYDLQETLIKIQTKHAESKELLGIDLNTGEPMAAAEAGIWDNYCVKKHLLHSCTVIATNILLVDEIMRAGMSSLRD
UniProt Q60974: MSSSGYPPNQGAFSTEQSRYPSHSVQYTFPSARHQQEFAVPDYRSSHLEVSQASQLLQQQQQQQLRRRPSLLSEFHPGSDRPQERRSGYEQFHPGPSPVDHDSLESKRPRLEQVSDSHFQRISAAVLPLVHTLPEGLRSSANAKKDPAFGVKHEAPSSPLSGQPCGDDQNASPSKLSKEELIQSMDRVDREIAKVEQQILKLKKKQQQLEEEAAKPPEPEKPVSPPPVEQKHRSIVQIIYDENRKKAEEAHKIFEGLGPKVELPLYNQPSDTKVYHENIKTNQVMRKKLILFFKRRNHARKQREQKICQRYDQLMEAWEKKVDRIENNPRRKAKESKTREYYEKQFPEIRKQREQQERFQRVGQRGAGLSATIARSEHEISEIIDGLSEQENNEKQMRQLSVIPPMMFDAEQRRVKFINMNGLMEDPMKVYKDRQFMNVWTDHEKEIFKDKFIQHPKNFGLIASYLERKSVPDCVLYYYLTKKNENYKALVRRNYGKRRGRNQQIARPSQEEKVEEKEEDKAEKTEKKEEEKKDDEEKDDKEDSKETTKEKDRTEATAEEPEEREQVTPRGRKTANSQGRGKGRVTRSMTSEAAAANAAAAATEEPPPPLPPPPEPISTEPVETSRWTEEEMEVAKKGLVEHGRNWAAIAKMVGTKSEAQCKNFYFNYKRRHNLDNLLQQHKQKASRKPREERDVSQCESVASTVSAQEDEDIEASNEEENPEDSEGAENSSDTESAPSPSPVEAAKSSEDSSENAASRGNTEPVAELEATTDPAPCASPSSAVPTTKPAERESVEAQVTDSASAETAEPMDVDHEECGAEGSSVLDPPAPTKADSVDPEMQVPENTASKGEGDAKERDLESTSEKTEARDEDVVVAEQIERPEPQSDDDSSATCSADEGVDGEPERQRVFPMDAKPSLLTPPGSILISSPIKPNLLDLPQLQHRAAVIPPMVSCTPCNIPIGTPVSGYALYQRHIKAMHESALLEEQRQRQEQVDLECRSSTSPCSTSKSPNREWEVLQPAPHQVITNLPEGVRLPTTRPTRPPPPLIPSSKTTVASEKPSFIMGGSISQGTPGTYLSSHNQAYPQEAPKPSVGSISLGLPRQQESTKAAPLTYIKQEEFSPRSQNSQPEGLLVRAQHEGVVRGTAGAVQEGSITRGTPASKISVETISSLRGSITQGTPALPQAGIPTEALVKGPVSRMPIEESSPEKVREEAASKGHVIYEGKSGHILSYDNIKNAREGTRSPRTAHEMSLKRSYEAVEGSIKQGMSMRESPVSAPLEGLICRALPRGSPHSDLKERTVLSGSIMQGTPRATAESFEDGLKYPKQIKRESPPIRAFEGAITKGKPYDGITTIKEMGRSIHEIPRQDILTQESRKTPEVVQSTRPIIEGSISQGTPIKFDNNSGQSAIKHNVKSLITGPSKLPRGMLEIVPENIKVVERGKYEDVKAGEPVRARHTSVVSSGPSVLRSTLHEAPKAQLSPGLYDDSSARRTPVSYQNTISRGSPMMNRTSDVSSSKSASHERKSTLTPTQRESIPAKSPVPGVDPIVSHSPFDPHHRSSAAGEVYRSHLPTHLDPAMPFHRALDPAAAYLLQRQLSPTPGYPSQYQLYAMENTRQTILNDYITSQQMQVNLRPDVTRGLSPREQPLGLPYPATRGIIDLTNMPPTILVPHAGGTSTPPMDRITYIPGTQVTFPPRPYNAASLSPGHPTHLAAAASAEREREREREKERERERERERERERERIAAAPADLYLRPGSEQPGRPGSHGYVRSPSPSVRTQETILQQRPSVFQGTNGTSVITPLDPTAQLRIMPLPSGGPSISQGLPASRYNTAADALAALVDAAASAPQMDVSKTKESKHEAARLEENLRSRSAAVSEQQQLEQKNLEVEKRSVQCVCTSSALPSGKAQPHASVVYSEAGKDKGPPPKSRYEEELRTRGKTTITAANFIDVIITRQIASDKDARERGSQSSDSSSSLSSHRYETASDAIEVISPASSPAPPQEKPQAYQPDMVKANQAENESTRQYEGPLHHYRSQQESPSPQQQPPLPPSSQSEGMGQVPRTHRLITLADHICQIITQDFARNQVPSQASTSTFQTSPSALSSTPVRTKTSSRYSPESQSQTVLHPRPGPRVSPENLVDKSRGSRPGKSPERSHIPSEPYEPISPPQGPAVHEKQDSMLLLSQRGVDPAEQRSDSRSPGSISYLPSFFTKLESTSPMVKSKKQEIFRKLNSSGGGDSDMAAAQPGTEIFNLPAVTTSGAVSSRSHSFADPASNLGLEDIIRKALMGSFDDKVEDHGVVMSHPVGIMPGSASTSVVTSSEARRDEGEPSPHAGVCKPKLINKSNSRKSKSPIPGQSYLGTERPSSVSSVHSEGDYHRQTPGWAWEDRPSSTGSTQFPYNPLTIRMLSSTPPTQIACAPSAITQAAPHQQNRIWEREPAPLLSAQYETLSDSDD

T1: 3xFlag-tagged Tbl1x (transducin (beta)-like 1 X-linked), construct PiggyBac-CAG-Avi-Tbl1x-3xFlag-ires-Neo (UniProt Q9QXE7)
T1 sequence: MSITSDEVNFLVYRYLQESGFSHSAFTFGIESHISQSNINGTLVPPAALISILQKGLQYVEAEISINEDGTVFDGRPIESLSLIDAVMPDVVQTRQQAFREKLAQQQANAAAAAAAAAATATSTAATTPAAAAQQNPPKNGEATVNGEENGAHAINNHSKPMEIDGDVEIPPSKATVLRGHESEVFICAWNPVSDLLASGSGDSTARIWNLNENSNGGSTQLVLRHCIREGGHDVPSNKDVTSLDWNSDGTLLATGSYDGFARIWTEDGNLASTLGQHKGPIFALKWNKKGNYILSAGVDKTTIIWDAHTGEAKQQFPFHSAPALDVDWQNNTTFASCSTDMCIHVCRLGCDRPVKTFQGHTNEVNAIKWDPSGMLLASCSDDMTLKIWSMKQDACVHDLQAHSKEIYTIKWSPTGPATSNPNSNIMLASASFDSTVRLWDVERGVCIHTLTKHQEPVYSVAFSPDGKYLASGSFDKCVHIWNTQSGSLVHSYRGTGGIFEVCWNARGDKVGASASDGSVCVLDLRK

T2: 3xFlag-tagged Erf (Ets2 repressor factor), construct PiggyBac-CAG-Avi-Erf-3xFlag-ires-Neo (mouse) (UniProt P70459)
T2 sequence: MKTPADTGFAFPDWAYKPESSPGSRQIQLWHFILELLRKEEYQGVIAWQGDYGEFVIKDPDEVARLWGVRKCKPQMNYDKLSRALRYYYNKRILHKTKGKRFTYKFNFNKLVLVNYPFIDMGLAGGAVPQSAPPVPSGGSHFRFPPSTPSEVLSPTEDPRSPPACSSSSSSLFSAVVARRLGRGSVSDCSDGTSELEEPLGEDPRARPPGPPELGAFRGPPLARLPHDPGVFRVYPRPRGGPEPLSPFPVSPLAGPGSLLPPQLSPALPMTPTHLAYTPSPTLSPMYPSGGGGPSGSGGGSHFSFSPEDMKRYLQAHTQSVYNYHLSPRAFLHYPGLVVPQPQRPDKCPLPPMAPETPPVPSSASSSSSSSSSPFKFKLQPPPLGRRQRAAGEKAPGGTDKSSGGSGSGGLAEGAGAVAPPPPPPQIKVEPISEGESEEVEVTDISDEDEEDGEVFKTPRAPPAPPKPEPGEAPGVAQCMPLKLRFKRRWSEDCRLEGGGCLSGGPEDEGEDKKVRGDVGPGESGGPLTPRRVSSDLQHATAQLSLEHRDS

B1: transducin (beta)-like 1 X-linked receptor 1 (protein, UniProt Q8BHJ5 1-514)
chain: MSISSDEVNFLVYRYLQESGFSHSAFTFGIESHISQSNINGALVPPAALISIIQKGLQYVEAEVSINEDGTLFDGRPIESLSLIDAVMPDVVQTRQQAYRDKLAQQHAAAAAAAAAATNQQGSAKNGENTANGEENGAHTIANNHTDMMEVDGDVEIPSNKAVVLRGHESEVFICAWNPVSDLLASGSGDSTARIWNLSENSTSGPTQLVLRHCIREGGQDVPSNKDVTSLDWNSEGTLLATGSYDGFARIWTKDGNLASTLGQHKGPIFALKWNKKGNFILSAGVDKTTIIWDAHTGEAKQQFPFHSAPALDVDWQSNNTFASCSTDMCIHVCKLGQDRPIKTFQGHTNEVNAIKWDPTGNLLASCSDDMTLKIWSMKQDNCVHDLQAHNKEIYTIKWSPTGPGTNNPNANLMLASASFDSTVRLWDVDRGICIHTLTKHQEPVYSVAFSPDGRYLASGSFDKCVHIWNTQTGALVHSYRGTGGIFEVCWNAAGDKVGASASDGSVCVLDLRK
B2: Cct2 (protein, UniProt P80314 1-535)
chain: MASLSLAPVNIFKAGADEERAETARLSSFIGAIAIGDLVKSTLGPKGMDKILLSSGRDAALMVTNDGATILKNIGVDNPAAKVLVDMSRVQDDEVGDGTTSVTVLAAELLREAESLIAKKIHPQTIISGWREATKAAREALLSSAVDHGSDEARFWQDLMNIAGTTLSSKLLTHHKDHFTKLAVEAVLRLKGSGNLEAIHVIKKLGGSLADSYLDEGFLLDKKIGVNQPKRIENAKILIANTGMDTDKIKIFGSRVRVDSTAKVAEIEHAEKEKMKEKVERILKHGINCFINRQLIYNYPEQLFGAAGVMAIEHADFAGVERLALVTGGEIASTFDHPELVKLGSCKLIEEVMIGEDKLIHFSGVALGEACTIVLRGATQQILDEAERSLHDALCVLAQTVKDPRTVYGGGCSEMLMAHAVTQLANRTPGKEAVAMESFAKALRMLPTIIADNAGYDSADLVAQLRAAHSEGHITAGLDMKEGTIGDMAVLGITESFQVKRQVLLSAAEAAEVILRVDNIIKAAPRKRVPDHHPC
B3: Cct3 (protein, UniProt P80318 1-545)
chain: MMGHRPVLVLSQNTKRESGRKVQSGNINAAKTIADIIRTCLGPKSMMKMLLDPMGGIVMTNDGNAILREIQVQHPAAKSMIEISRTQDEEVGDGTTSVIILAGEMLSVAEHFLEQQMHPTVVISAYRMALDDMISTLKKISTPVDVNNREMMLSIINSSITTKVISRWSSLACNIALDAVKTVQFEENGRKEIDIKKYARVEKIPGGIIEDSCVLRGVMINKDVTHPRMRRYIKNPRIVLLDSSLEYKKGESQTDIEITREEDFTRILQMEEEYIHQLCEDIIQLKPDVVITEKGISDLAQHYLMRANVTAIRRVRKTDNNRIARACGARIVSRPEELREDDVGTGAGLLEIKKIGDEYFTFITDCKDPKACTILLRGASKEILSEVERNLQDAMQVCRNVLLDPQLVPGGGASEMAVAHALTEKSKAMTGVEQWPYRAVAQALEVIPRTLIQNCGASTIRLLTSLRAKHTQESCETWGVNGETGTLVDMKELGIWEPLAVKLQTYKTAVETAVLLLRIDDIVSGHKKKGDDQNRQTGAPDAGQE
B4: Cct7 (protein, UniProt P80313 1-544)
chain: MMPTPVILLKEGTDSSQGIPQLVSNISACQVIAEAVRTTLGPRGMDKLIVDGRGKATISNDGATILKLLDVVHPAAKTLVDIAKSQDAEVGDGTTSVTLLAAEFLKQVKPYVEEGLHPQIIIRAFRTATQLAVNKIKEIAVTVKKQDKVEQRKMLEKCAMTALSSKLISQQKVFFAKMVVDAVMMLDELLQLKMIGIKKVQGGALEESQLVAGVAFKKTFSYAGFEMQPKKYKNPKIALLNVELELKAEKDNAEIRVHTVEDYQAIVDAEWNILYDKLEKIHQSGAKVILSKLPIGDVATQYFADRDMFCAGRVPEEDLKRTMMACGGSIQTSVNALVPDVLGHCQVFEETQIGGERYNFFTGCPKAKTCTIILRGGAEQFMEETERSLHDAIMIVRRAIKNDSVVAGGGAIEMELSKYLRDYSRTIPGKQQLLIGAYAKALEIIPRQLCDNAGFDATNILNKLRARHAQGGMWYGVDINNENIADNFQAFVWEPAMVRINALTAASEAACLIVSVDETIKNPRSTVDPPAPSAGRGRGQARFH
B5: Cct8 (protein, UniProt P42932 1-548)
chain: MALHVPKAPGFAQMLKDGAKHFSGLEEAVYRNIQACKELAQTTRTAYGPNGMNKMVINRLEKLFVTNDAATILRELEVQHPAAKMIVMASHMQEQEVGDGTNFVLVFAGALLELAEELLRIGLSVSEVISGYEIACKKAHEILPELVCCSAKNLRDVDEVSSLLRTSIMSKQYGSETFLAKLIAQACVSIFPDSGNFNVDNIRVCKILGSGIYSSSVLHGMVFKKETEGDVTSVKDAKIAVYSCPFDGMITETKGTVLIKTAEELMNFSKGEENLMDAQVKAIAGTGANVIVTGGKVADIALHYANKYNIMLVRLNSKWDLRRLCKTVGATALPKLTPPVQEEMGHCDSVYLSEVGDTQVVVFKHEKEDGAISTIVLRGSTDNLMDDIERAVDDGVNTFKVLTRDKRLVPGGGATEIELAKQITSYGETCPGLEQYAIKKFAEAFEAIPRALAENSGVKANEVISKLYSVHQEGNKNVGLDIEAEVPAVKDMLEASILDTYLGKYWAIKLATNAAVTVLRVDQIIMAKPAGGPKPPSGKKDWDDDQND
B6: transducin (beta)-like 1 X-linked (protein, UniProt Q9QXE7 1-527)
chain: MSITSDEVNFLVYRYLQESGFSHSAFTFGIESHISQSNINGTLVPPAALISILQKGLQYVEAEISINEDGTVFDGRPIESLSLIDAVMPDVVQTRQQAFREKLAQQQANAAAAAAAAAATATSTAATTPAAAAQQNPPKNGEATVNGEENGAHAINNHSKPMEIDGDVEIPPSKATVLRGHESEVFICAWNPVSDLLASGSGDSTARIWNLNENSNGGSTQLVLRHCIREGGHDVPSNKDVTSLDWNSDGTLLATGSYDGFARIWTEDGNLASTLGQHKGPIFALKWNKKGNYILSAGVDKTTIIWDAHTGEAKQQFPFHSAPALDVDWQNNTTFASCSTDMCIHVCRLGCDRPVKTFQGHTNEVNAIKWDPSGMLLASCSDDMTLKIWSMKQDACVHDLQAHSKEIYTIKWSPTGPATSNPNSNIMLASASFDSTVRLWDVERGVCIHTLTKHQEPVYSVAFSPDGKYLASGSFDKCVHIWNTQSGSLVHSYRGTGGIFEVCWNARGDKVGASASDGSVCVLDLRK
B7: Ets2 repressor factor (protein, UniProt P70459 1-551)
chain: MKTPADTGFAFPDWAYKPESSPGSRQIQLWHFILELLRKEEYQGVIAWQGDYGEFVIKDPDEVARLWGVRKCKPQMNYDKLSRALRYYYNKRILHKTKGKRFTYKFNFNKLVLVNYPFIDMGLAGGAVPQSAPPVPSGGSHFRFPPSTPSEVLSPTEDPRSPPACSSSSSSLFSAVVARRLGRGSVSDCSDGTSELEEPLGEDPRARPPGPPELGAFRGPPLARLPHDPGVFRVYPRPRGGPEPLSPFPVSPLAGPGSLLPPQLSPALPMTPTHLAYTPSPTLSPMYPSGGGGPSGSGGGSHFSFSPEDMKRYLQAHTQSVYNYHLSPRAFLHYPGLVVPQPQRPDKCPLPPMAPETPPVPSSASSSSSSSSSPFKFKLQPPPLGRRQRAAGEKAPGGTDKSSGGSGSGGLAEGAGAVAPPPPPPQIKVEPISEGESEEVEVTDISDEDEEDGEVFKTPRAPPAPPKPEPGEAPGVAQCMPLKLRFKRRWSEDCRLEGGGCLSGGPEDEGEDKKVRGDVGPGESGGPLTPRRVSSDLQHATAQLSLEHRDS

How the values were obtained:
[1] = molecular target: T1, 3xFlag-tagged Tbl1x (transducin (beta)-like 1 X-linked), construct PiggyBac-CAG-Avi-Tbl1x-3xFlag-ires-Neo; experiment: affinity purification with mass spectrometry; anti-FLAG M2 agarose on nuclear extract of TSCs stably expressing Tbl1x-3xFlag, after 3 h PD0325901 or 48 h withdrawal of Fgf and CM with CHIR99021; 3 h at 4 C with Benzonase, buffer D (20 mM Hepes pH 7.6, 20% glycerol, 100 mM KCl); compared to an empty vector line, n = 3
[2] = molecular target: T2, 3xFlag-tagged Erf (Ets2 repressor factor), construct PiggyBac-CAG-Avi-Erf-3xFlag-ires-Neo (mouse); experiment: affinity purification with mass spectrometry; anti-FLAG M2 agarose on nuclear extract of TSCs stably expressing Erf-3xFlag, treated with PD0325901 for 3 h and 24 h; 3 h at 4 C with Benzonase, buffer D (20 mM Hepes pH 7.6, 20% glycerol, 100 mM KCl); compared to an empty vector line, n = 3

Molecule | binding [1] | binding [2]
Cct6a (from UniProt P80317 1-531) | binds | –
Ankrd11 (from UniProt E9Q4F7 1-2643) | binds | binds
Cct6b (from UniProt Q61390 1-531) | binds | –
Tcp1 (from UniProt P11983 1-556) | binds | –
Nuclear receptor co-repressor 1 (from UniProt Q60974 1-2453) | binds | binds
Cct5 (from UniProt P80316 1-541) | binds | –
B1 | binds | binds
B2 | binds | –
B3 | binds | –
B4 | binds | –
B5 | binds | –
B6 | – | binds
B7 | binds | –
